Assay results reported in PubChem BioAssay AID504467 (National Center for Advancing Translational Sciences (NCATS), 2011).
Among all 330,000 compounds or so, about 7,700 (2.3%) were called active. This list was built around the results that the source calls inconclusive (neither active nor inactive); the mix of calls is not that of the screen. Calls come from the whole dose curve; as a rule, active = well fitted inhibition curve with a large enough effect; inconclusive = small, poorly fitted or top-dose-only effect, or effect the other way; inactive = flat fitted curve, though single readings scatter. A potency beside an inconclusive call is a rough fit, not a confirmed value.

Assay: qHTS screen for small molecules that inhibit ELG1-dependent DNA repair in human embryonic kidney (HEK293T) cells expressing luciferase-tagged ELG1; note: nearly all actives have a fitted effect of over 55% in size
Conditions: HEK293T ELG1-luciferase reporter, luminescence, 16 h, DNA damage induced by 5-fluorouridine; series mostly up to 46.1 µM
Outline: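 Luminescence from the luciferase reporter, measured 30 min after ONE-Glo reagent at room temperature, was the read-out. Beforehand, 2,000 cells per well were exposed for 16 hr at 37 °C to 5-fluorouridine together with compound or vehicle.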
Potency is the fitted concentration of half-maximal effect.

SMILES | Potency
Cc1ccccc1NC1=NC(=S)N(c2ccccc2)C12CCOC(C)(C)C2 (stereo unspecified) | inactive
CC(=O)NC1C(=O)N(CCc2ccccc2)c2ccc(Br)cc21 (stereo unspecified) | inactive
CCOC(=O)c1c(NC(=O)CSc2nnc(-c3ccccc3)o2)sc(C(C)=O)c1C | inconclusive: 23.1 µM [inhibitor, partial curve]
CC(C)OCCCNC(=O)c1ccc(NC(=O)C2CCCO2)cc1 (stereo unspecified) | inconclusive: 25.9 µM [activator, single point]
Cc1cc2ncn(C3CC(=O)N(C)C3=O)c2cc1C (stereo unspecified) | inconclusive: 14.6 µM [activator, single point]
CCN(CC)C(=O)c1cc2c(=O)n3cccc(C)c3nc2s1 | inconclusive: 6.51 µM [activator, partial curve]
COc1ccc(N=C2S/C(=C\c3ccc(OC(C)C(=O)O)c(OC)c3)C(=O)N2CCc2c[nH]c3ccccc23)cc1 (stereo unspecified) | inconclusive: 29.1 µM [inhibitor, single point]
COC(=O)c1sccc1-c1ccc(/C=N/OC(=O)c2cccs2)o1 | inactive
COc1ccc([C@@H]2C[C@H]3CN(c4ccccc4)C(=O)[C@]34CCCN24)c(OC)c1OC | inconclusive: 29.1 µM [inhibitor, single point]
O=[N+]([O-])c1ccccc1OCCCn1cnc2ccccc21 | inconclusive: 13 µM [activator, partial curve]
COc1ccc(OC)c(/C=C/C(=O)OCC(=O)Nc2ccc3c(c2)OCCO3)c1 | inconclusive: 18.4 µM [inhibitor, partial curve, poor fit]
CN(c1cccc(NC(=O)CN(c2ccc(C34CC5CC(CC(C5)C3)C4)cc2)S(C)(=O)=O)c1)S(C)(=O)=O | inconclusive: 20.6 µM [inhibitor, single point]
CCc1nnc(NC(=O)C2CCN(c3ncnc4sc(C)c(C)c34)CC2)s1 | inconclusive: 0.73 µM [inhibitor, full curve, poor fit]
COCCOC1CCN(C(=O)C2CCC(=O)N(Cc3cccc(F)c3)C2)CC1 (stereo unspecified) | inconclusive: 10.3 µM [activator, partial curve]
CC1CCN(c2c(NCc3ccc(C(=O)N4CCc5ccccc54)cc3)c(=O)c2=O)CC1 | inconclusive: 5.8 µM [inhibitor, partial curve]
O=C(O)C(Cc1ccccc1)N1C(=O)/C(=C/c2cccc3ccccc23)SC1=S (stereo unspecified) | inactive
Cc1ccc2cc(CN(Cc3ccco3)C(=S)NCC3CCCO3)c(=O)[nH]c2c1 (stereo unspecified) | active: 20.6 µM
Cc1cc(C(=O)N/N=C/c2cc(Br)ccc2OC(=O)c2ccccc2)n[nH]1 | inactive
COc1ccc(OC)c(C(=O)c2ccc(C(=O)c3cc(OC)ccc3OC)cc2)c1 | inconclusive: 18.4 µM [inhibitor, single point]
O=C(NC(=S)Nc1cccc(O)c1)C1CCCCC1 | inconclusive: 18.3 µM [activator, partial curve]
Cc1nnc(N/N=C/c2cccc(OCc3ccc(Cl)c(Cl)c3)c2)n1N | inconclusive: 16.4 µM [activator, partial curve]
CCCc1nc2ccccc2c(C(=O)OCC(=O)N2CCc3ccccc32)c1CC | active: 16.4 µM

Looked up one by one from above:
SMILES | Potency
COc1ccc(OC)c(C(=O)c2ccc(C(=O)c3cc(OC)ccc3OC)cc2)c1 | inconclusive: 18.4 µM [inhibitor, single point]
COc1ccc([C@@H]2C[C@H]3CN(c4ccccc4)C(=O)[C@]34CCCN24)c(OC)c1OC | inconclusive: 29.1 µM [inhibitor, single point]
Cc1ccccc1NC1=NC(=S)N(c2ccccc2)C12CCOC(C)(C)C2 (stereo unspecified) | inactive

Remaining list, next part:

SMILES | Potency
CCOc1ccc(-n2c(C)cc(C(=O)CCl)c2C)cc1 | inconclusive: 23.1 µM [activator, single point]
CCc1nc2ccccc2c(C(=O)OC2CCCCC2=O)c1C (stereo unspecified) | inconclusive: 16.4 µM [inhibitor, single point]
N#CCC(=O)Nc1ccc(C(=O)OCC(=O)NC(=O)Nc2ccc3c(c2)OCCO3)cc1 | inconclusive: 4.61 µM [activator, single point]
c1csc(CNc2ncnc3ccc(-c4ccc5c(c4)OCO5)cc23)c1 | inconclusive: 29.1 µM [inhibitor, single point]
Cc1ccc(C(=O)NCCC(=O)NCc2cc(=O)n(C)c(=O)n2C)cc1 | inconclusive: 20.6 µM [activator, single point]
CCOC(=O)N1CCN(c2ncnc3scc(-c4ccc(Cl)cc4)c23)CC1 | inconclusive: 20.6 µM [inhibitor, single point]
CCOC(=O)c1sc2nccc(N(C)C)c2c1N=CN(C)C | inconclusive: 23.1 µM [inhibitor, partial curve]
Cc1cccc(NC(=O)c2ccc(NC(=O)c3ccccc3Br)cc2)c1 | inconclusive: 18.3 µM [inhibitor, partial curve, poor fit]
O=C(CSc1nnnn1-c1cccc(F)c1)NC1CCCCC1 | inactive
CN1CC(c2ccccc2)C2(SC(=S)N(Cc3ccco3)C2=O)C12C(=O)Nc1ccccc12 (stereo unspecified) | inconclusive: 25.9 µM [inhibitor, partial curve]
CC1Sc2ccc(S(=O)(=O)N3CCC(C(=O)NCc4ccc(Cl)cc4)CC3)cc2NC1=O (stereo unspecified) | inconclusive: 18.3 µM [inhibitor, partial curve, poor fit]
CS(=O)(=O)c1cnc2c(S(=O)(=O)c3ccccc3)cnn2c1N | inactive
CCCOc1ccc(N2C(=O)CC(N(CCc3ccc(OC)c(OC)c3)C(=S)Nc3ccccc3)C2=O)cc1 (stereo unspecified) | active: 16.4 µM
COCCNC(=S)N1CCc2cc(OC)c(OC)cc2C1COc1cc(C)cc(C)c1 (stereo unspecified) | inconclusive: 9.2 µM [inhibitor, partial curve]
Cc1sc2nc3ccc(NCc4ccco4)nn3c(=O)c2c1C | inactive
O=C(NCC1CCCO1)c1ccc(COCC(F)(F)C(F)F)cc1 (stereo unspecified) | inconclusive: 13 µM [activator, partial curve, poor fit]
COCC(=O)Nc1ccc(C)c(Cl)c1 | inactive
CC1(C)C2CCC1(C)C(OC(=O)CSc1nc(N)cc(=O)[nH]1)C2 (stereo unspecified) | inconclusive: 11.6 µM [activator, partial curve, poor fit]
CCn1c2ccccc2c2cc(C3C(C#N)=C(N)Oc4n[nH]c(COC)c43)ccc21 (stereo unspecified) | inconclusive: 8.2 µM [inhibitor, single point]
Cc1ccc(N/N=C(\C#N)C(=N)N2CCCCCC2)cc1 | inconclusive: 5.17 µM [activator, full curve]
COCCNC(=O)c1ccccc1NC(=O)c1cccc([N+](=O)[O-])c1C | inactive
COC(=O)c1cc(OC)c(OC)cc1NC(=O)CSc1ccccc1 | inconclusive: 17.8 µM [inhibitor, single point]

SMILES | Potency
N#Cc1cc(Oc2cccc3cccnc23)c(-n2nnc3ccccc32)cc1C#N | inconclusive: 25.9 µM [inhibitor, single point]
Clc1ccccc1OCCCCn1ccnc1 | inactive
CC(C)C(=O)N1CCN(c2ccc(NC(=O)c3cccs3)cc2)CC1 | inconclusive: 32.6 µM [inhibitor, single point]
O=C(NC1CCCc2c1cnn2-c1ccc(F)cc1F)c1cnccn1 (stereo unspecified) | inconclusive: 7.3 µM [inhibitor, partial curve, poor fit]
O=C(CN1CCC(c2nc3ccccc3s2)CC1)NCc1cccs1 | active: 9.2 µM
Clc1cccc(/C=N/Nc2nnc(Cl)c3ccccc23)c1 | inconclusive: 18.4 µM [activator, single point]
O=C(N/N=C/c1ccccc1O)NC12CC3CC(CC(C3)C1)C2 | inconclusive: 10.3 µM [activator, partial curve, poor fit]
COc1cccc(OCc2cc(C(=O)N3CCC(c4ccncc4)CC3)no2)c1 | inconclusive: 0.517 µM [inhibitor, partial curve, poor fit]
COc1ccc(NC(=O)c2cc3ccccc3cc2OC)cc1 | inconclusive: 2.31 µM [activator, full curve]
O=C(NC1CCCC1)c1c(O)nc2sccn2c1=O | inconclusive: 23.1 µM [activator, single point]
CCN(CC)C(=O)/C(=C/c1cccc([N+](=O)[O-])c1)NC(=O)c1ccco1 | inconclusive: 14.6 µM [inhibitor, single point]
Cc1ccc(C(=O)Nc2ccc3c(c2)OCCO3)c(Cl)c1 | inconclusive: 0.282 µM [activator, partial curve, poor fit]
COc1cc(NC(=O)CSc2nnc3n2C(C)(C)Cc2ccccc2-3)cc(OC)c1 | active: 22.4 µM
C/C(=N\NC(=O)c1cccc(S(=O)(=O)N2CCCC2)c1)c1ccccc1F | inconclusive: 13 µM [activator, single point]
O=C(CSc1nnc(Cc2cccs2)n1Cc1ccco1)Nc1cccc(Cl)c1 | inconclusive: 29.1 µM [inhibitor, single point]
Cc1cc(C(=O)Cn2nc(C(=O)O)c3ccccc3c2=O)c(C)n1-c1ccc(F)cc1 | inconclusive: 18.4 µM [activator, partial curve]
CC(C)Cn1c(N)c(C(=O)COC(=O)c2ccc(F)cc2)c(=O)n(C)c1=O | inconclusive: 23.1 µM [inhibitor, partial curve]
CCc1nnc(NC(=O)c2ccc3c(c2)C(=O)N(CC(C)C)C3=O)s1 | inconclusive: 16.4 µM [activator, partial curve]
CCCCn1nnc(N(C(=O)c2cccs2)C(=O)c2cccs2)n1 | inconclusive: 29.1 µM [activator, single point]
O=C(NCc1cccnc1)c1nnc(Cc2ccc(F)cc2)o1 | inactive
Nc1nn(-c2ccccc2)c(N)c1N=Nc1ccccc1F | inconclusive: 0.411 µM [activator, full curve]
COc1ccc(C(=O)NCCCCCCNC(=O)c2ccc(OC)cc2)cc1 | inconclusive: 16.4 µM [activator, partial curve]
